Results from article PMC11461180, “Interaction with IP6K1 supports pyrophosphorylation of substrate proteins by the inositol pyrophosphate 5-InsP7” (Bioscience Reports, 2024).
These are yes or no findings as the source states them, for the method shown. Binding seen in cells or lysates may run through a third protein. A yes stands for co-enrichment or nearness to the bait. Other partners may have been found.

By UniProt entry, the sequences of proteins in these tests, tags left out.
UniProt Q92551: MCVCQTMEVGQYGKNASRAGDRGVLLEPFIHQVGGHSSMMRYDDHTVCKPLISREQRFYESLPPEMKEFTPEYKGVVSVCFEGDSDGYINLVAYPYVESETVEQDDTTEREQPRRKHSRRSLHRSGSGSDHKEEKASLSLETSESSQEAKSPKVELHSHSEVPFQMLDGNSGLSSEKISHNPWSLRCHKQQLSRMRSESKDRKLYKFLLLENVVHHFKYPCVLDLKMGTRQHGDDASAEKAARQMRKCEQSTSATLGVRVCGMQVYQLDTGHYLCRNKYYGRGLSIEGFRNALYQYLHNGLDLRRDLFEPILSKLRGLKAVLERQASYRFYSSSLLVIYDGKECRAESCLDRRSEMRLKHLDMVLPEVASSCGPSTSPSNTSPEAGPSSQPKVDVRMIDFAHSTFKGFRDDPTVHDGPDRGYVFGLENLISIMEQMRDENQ
UniProt Q04637: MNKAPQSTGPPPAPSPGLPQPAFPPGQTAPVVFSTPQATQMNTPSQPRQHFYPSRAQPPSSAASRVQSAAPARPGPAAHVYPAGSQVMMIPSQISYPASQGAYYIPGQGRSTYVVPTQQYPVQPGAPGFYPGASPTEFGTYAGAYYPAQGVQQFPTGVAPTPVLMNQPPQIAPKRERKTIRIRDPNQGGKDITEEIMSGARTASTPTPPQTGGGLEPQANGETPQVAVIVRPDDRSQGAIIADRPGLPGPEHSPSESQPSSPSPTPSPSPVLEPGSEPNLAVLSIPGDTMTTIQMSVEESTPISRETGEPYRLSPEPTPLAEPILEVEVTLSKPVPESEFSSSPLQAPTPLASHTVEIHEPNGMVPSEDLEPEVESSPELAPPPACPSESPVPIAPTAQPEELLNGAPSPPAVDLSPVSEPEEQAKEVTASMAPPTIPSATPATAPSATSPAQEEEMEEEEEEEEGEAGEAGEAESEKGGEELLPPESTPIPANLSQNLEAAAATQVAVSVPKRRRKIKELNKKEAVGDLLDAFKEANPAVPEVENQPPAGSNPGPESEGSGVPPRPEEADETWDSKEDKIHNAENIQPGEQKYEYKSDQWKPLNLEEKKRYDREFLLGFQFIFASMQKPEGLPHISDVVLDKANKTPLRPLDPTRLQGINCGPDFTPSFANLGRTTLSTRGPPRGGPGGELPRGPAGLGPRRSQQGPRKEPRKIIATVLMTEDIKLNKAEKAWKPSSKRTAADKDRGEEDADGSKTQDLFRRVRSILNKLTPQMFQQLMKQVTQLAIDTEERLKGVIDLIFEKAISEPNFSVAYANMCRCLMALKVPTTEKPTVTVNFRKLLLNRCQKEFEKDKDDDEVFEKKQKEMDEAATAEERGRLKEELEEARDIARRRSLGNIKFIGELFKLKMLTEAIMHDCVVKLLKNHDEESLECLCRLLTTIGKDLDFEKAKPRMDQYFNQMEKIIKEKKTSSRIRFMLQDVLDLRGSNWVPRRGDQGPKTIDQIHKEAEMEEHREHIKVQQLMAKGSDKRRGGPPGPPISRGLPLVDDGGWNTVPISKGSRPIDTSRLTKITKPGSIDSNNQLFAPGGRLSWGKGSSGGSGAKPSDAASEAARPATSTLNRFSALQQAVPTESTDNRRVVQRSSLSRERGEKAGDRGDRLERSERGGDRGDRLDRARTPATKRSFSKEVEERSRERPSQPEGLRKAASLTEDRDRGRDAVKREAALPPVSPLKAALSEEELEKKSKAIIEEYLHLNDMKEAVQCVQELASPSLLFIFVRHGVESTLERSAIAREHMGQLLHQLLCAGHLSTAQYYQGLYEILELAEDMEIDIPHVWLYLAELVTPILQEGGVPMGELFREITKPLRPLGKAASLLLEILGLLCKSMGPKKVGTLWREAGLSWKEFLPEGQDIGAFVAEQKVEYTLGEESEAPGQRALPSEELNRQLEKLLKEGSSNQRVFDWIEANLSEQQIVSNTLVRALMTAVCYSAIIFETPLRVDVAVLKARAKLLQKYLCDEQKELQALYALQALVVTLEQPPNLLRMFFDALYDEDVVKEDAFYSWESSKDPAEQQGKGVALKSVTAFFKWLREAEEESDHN
UniProt Q14978: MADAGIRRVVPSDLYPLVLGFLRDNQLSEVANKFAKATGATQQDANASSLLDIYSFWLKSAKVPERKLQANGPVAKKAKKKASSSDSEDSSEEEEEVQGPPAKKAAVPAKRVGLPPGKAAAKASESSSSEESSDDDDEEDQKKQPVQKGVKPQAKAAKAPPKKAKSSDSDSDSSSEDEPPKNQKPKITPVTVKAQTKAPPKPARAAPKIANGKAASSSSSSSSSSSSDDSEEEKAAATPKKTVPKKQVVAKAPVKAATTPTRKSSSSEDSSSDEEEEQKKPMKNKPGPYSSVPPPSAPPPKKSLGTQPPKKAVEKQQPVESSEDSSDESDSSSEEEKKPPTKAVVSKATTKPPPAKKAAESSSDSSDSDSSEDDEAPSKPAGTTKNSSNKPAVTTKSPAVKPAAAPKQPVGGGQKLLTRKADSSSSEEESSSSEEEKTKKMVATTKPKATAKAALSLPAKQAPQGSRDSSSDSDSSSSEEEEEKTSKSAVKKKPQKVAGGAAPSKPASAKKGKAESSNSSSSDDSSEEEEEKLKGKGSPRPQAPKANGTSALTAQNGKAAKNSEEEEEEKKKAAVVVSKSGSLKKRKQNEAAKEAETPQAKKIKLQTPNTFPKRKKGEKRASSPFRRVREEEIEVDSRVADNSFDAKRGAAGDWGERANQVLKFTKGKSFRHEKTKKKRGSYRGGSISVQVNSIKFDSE
UniProt P67870: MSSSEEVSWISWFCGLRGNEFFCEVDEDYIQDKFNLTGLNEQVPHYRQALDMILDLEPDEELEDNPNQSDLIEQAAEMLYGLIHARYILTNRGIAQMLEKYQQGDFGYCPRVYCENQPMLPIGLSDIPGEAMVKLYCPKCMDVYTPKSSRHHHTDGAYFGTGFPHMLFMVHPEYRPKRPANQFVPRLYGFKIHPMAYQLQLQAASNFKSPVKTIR

The substances below were run against SFB-tagged IP6K1 (full length) (human) (UniProt Q92551) (assay: affinity purification with mass spectrometry; SFB-tagged bait expressed in HEK293T; lysis in NETN buffer (20 mM Tris-HCl pH 8.0, 100 mM NaCl, 1 mM EDTA, 0.5% Nonidet P-40) at 4°C; tandem purification on streptavidin-sepharose (biotin elution) and S-protein agarose; in-gel trypsin digest, LTQ Orbitrap; replicate sets; SFB-GFP as control).

binding	Substance
binds	EIF4G1, endogenous (from UniProt Q04637 1-1599)
binds	catalytic α’ subunit of CK2 (CSK22), endogenous (from UniProt P19784 1-350) (enzyme)
binds	endogenous NOLC1 (from UniProt Q14978 1-699)
binds	regulatory β subunit of CK2 (CSK2B), endogenous (from UniProt P67870 1-215)
